Data published in paper PMC6861005.
No constants are given. Whether binding was seen depends on the method and setting. Binding seen in cells or lysates may run through a third protein. A yes stands for co-enrichment or nearness to the bait. Other partners may have been found. Tags and fused reporters may be left off the sequences shown.

Protein sequences, listed by entry. Tags and fused reporters are not part of them.
UniProt P99999: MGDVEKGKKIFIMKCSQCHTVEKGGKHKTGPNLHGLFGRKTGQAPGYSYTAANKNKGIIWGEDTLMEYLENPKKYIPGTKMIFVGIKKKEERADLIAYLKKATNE

T1: hTim8a^FLAG (human) (UniProt O60220)
T1 sequence: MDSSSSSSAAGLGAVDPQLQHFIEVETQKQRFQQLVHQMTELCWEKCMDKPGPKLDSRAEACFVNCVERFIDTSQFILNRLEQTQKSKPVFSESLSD


Molecular target: T1, hTim8a^FLAG (human)
Assay: cross-linking + affinity purification with mass spectrometry; hTim8a^FLAG and control SH-SY5Y cells grown in glucose media or shifted to galactose media for 6 hr; isolated mitochondria cross-linked with DSP, FLAG immunoprecipitation, elution with 0.2 M glycine pH 2.0, label-free quantitative mass spectrometry, n = 3

| Molecule | binding |
| --- | --- |
| OPA1 (human (endogenous in SH-SY5Y)) | binds |
| COA6 (protein, UniProt Q5JTJ3 1-125) MGPGGPLLSPSRGFLLCKTGWHSNRLLGDCGPHTPVSTALSFIAVGMAAPSMKERQVCWGARDEYWKCLDENLEDASQCKKLRSSFESSCPQQWIKYFDKRRDYLKFKEKFEAGQFEPSETTAKS | binds |
| COA7 (protein, UniProt Q96BR5 1-231) MAGMVDFQDEEQVKSFLENMEVECNYHCYHEKDPDGCYRLVDYLEGIRKNFDEAAKVLKFNCEENQHSDSCYKLGAYYVTGKGGLTQDLKAAARCFLMACEKPGKKSIAACHNVGLLAHDGQVNEDGQPDLGKARDYYTRACDGGYTSSCFNLSAMFLQGAPGFPKDMDLACKYSMKACDLGHIWACANASRMYKLGDGVDKDEAKAEVLKNRAQQLHKEQQKGVQPLTFG | binds |

Continued, values first:

| binding | Molecule |
| --- | --- |
| binds | cytochrome c (from UniProt P99999 1-105) |
| binds | hTim8b (protein, UniProt Q9Y5J9 1-83) MAELGEADEAELQRLVAAEQQKAQFTAQVHHFMELCWDKCVEKPGNRLDSRTENCLSSCVDRFIDTTLAITSRFAQIVQKGGQ |
| binds | hTim13 (protein, UniProt Q9Y5L4 1-95) MEGGFGSDFGGSGSGKLDPGLIMEQVKVQIAVANAQELLQRMTDKCFRKCIGKPGGSLDNSEQKCIAMCMDRYMDAWNTVSRAYNSRLQRERANM |
